PubChem BioAssay AID686938, Drosophila RNAi Screening Center – 2013

Aim: 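Knock-downs reducing store-operated calcium influx in Drosophila cells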 (primary screen)
Cells: Drosophila S2R+ cells
Knock-down reagent: long dsRNA against Drosophila genes, about 0.25 µg dsRNA per well, roughly 10,000 cells
Time to read-out: 5 days of knock-down before the calcium assay
Challenge: thapsigargin (SERCA pump blocker) to empty calcium stores; entry signal taken 4 min after adding it
Read-out: 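Per-well fluo-4 fluorescence in two replicates, unnormalised, measured in resting cells and 4 min after store depletion by the SERCA blocker thapsigargin; ratio of the two present in few wells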
Direction: calcium entry signal: higher = stronger calcium signal after store depletion; entry to resting ratio: higher = more calcium entry relative to resting level; resting calcium signal: higher = higher resting calcium signal
Units: calcium entry signal in fluorescence units; resting calcium signal in fluorescence units
Rule for the call: 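Called when the plate z-score of the entry-to-rest ratio, mean of duplicates, falls below −3; wells with low overall dye signal (Fmax z below −2) or more than five off-targets excluded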
Meaning of the calls: active = strongly reduced calcium entry; inactive = no strong reduction
The deposit covers about 23,000 reagents; below is an unselected part of those that have a named target and a result. In the full data, 75 (0.33%) got an active call. 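Raw plate signals without normalisation; calls rest on plate z-scores that were not deposited; ratio present for only 364 wells.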 Reagents against one gene are numbered here. Names joined by + are all predicted targets of the reagent. Not stated in the record: the dose of the treatment.

{"gene": "MstProx + Mst84Da", "reagent": 1, "calcium entry signal, replicate 1": 2.83e7, "calcium entry signal, replicate 2": 2.20e7, "resting calcium signal, replicate 1": 1.37e7, "resting calcium signal, replicate 2": 1.11e7, "Outcome": "inactive"}
{"gene": "gsb-n", "reagent": 1, "calcium entry signal, replicate 1": 2.10e7, "calcium entry signal, replicate 2": 4.04e7, "resting calcium signal, replicate 1": 1.11e7, "resting calcium signal, replicate 2": 1.75e7, "Outcome": "inactive"}
{"gene": "gsb-n", "reagent": 2, "calcium entry signal, replicate 1": 3.28e7, "calcium entry signal, replicate 2": 3.17e7, "resting calcium signal, replicate 1": 1.74e7, "resting calcium signal, replicate 2": 1.50e7, "Outcome": "inactive"}
{"gene": "CG6171", "reagent": 1, "calcium entry signal, replicate 1": 4.07e7, "calcium entry signal, replicate 2": 5.06e7, "resting calcium signal, replicate 1": 1.64e7, "resting calcium signal, replicate 2": 2.20e7, "Outcome": "inactive"}
{"gene": "B9d1", "reagent": 1, "calcium entry signal, replicate 1": 2.29e7, "calcium entry signal, replicate 2": 2.65e7, "resting calcium signal, replicate 1": 1.18e7, "resting calcium signal, replicate 2": 3.70e7, "Outcome": "inactive"}
{"gene": "Gr92a", "reagent": 1, "calcium entry signal, replicate 1": 3.32e7, "calcium entry signal, replicate 2": 4.40e7, "resting calcium signal, replicate 1": 1.83e7, "resting calcium signal, replicate 2": 1.94e7, "Outcome": "inactive"}
{"gene": "CG11550", "reagent": 1, "calcium entry signal, replicate 1": 3.26e7, "calcium entry signal, replicate 2": 4.80e7, "entry to resting ratio": 1.9, "resting calcium signal, replicate 1": 1.71e7, "resting calcium signal, replicate 2": 1.92e7, "Outcome": "inactive"}
{"gene": "CG15739", "reagent": 1, "calcium entry signal, replicate 1": 3.44e7, "calcium entry signal, replicate 2": 4.30e7, "resting calcium signal, replicate 1": 1.77e7, "resting calcium signal, replicate 2": 1.85e7, "Outcome": "inactive"}
{"gene": "BORCS7 + CG13430", "reagent": 1, "calcium entry signal, replicate 1": 3.65e7, "calcium entry signal, replicate 2": 3.65e7, "resting calcium signal, replicate 1": 1.69e7, "resting calcium signal, replicate 2": 1.78e7, "Outcome": "inactive"}
{"gene": "BORCS7 + CG13430", "reagent": 2, "calcium entry signal, replicate 1": 1.89e7, "calcium entry signal, replicate 2": 2.81e7, "resting calcium signal, replicate 1": 1.07e7, "resting calcium signal, replicate 2": 1.24e7, "Outcome": "inactive"}
{"gene": "SCAP", "reagent": 1, "calcium entry signal, replicate 1": 4.95e7, "calcium entry signal, replicate 2": 4.65e7, "resting calcium signal, replicate 1": 2.39e7, "resting calcium signal, replicate 2": 2.19e7, "Outcome": "inactive"}
{"gene": "SCAP", "reagent": 2, "calcium entry signal, replicate 1": 3.57e7, "calcium entry signal, replicate 2": 3.73e7, "resting calcium signal, replicate 1": 1.99e7, "resting calcium signal, replicate 2": 1.88e7, "Outcome": "inactive"}

Reformatted: 2 of the entries above
gene | reagent | calcium entry signal, replicate 1 | calcium entry signal, replicate 2 | entry to resting ratio | resting calcium signal, replicate 1 | resting calcium signal, replicate 2 | Outcome
CG6171 | 1 | 4.07e7 | 5.06e7 | – | 1.64e7 | 2.20e7 | inactive
B9d1 | 1 | 2.29e7 | 2.65e7 | – | 1.18e7 | 3.70e7 | inactive
